# Data as given in PubChem BioAssay AID1259405 (NCATS, 2018).
# Aim: 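Silenced genes that increase secreted GFP made by CHO cells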 (primary screen)
# Cells: Chinese hamster CHO-K1 ovary cells with stable secreted eGFP expression
# Knock-down reagent: single siRNA against mouse genes, 0.8 pmol siRNA per well (2 µl of 400 nM stock)
# Timing: 3 days
# Measurement: 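Percent of the per-plate non-targeting control median for intracellular GFP per well by laser scanning cytometry and for cell viability by ATP luminescence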
# Reading the numbers: GFP, % of control: higher = more GFP per well, higher productivity; viability (ATP), % of control: higher = more viable cells (more ATP)
# Active means: 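Called active when intracellular GFP, relative to negative control, is at or above 120%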
# The deposit covers about 50,000 reagents; below is a part drawn at random. About 4,000 of all reagents (8%) count as active. 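Mouse siRNA library applied to hamster cells; one well for each siRNA.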 Unmarked entries are inactive. The numbers tell different reagents against one gene apart.
gene knocked down,reagent,"GFP, % of control","viability (ATP), % of control"
Mcm8,1,118,129
Mcm8,2,83.2,49.9
Mcm8,3,22.4,73.1
Cadm1,1,144 (active),105
Cadm1,2,52.8,61.3
Cadm1,3,84.8,74.8
Cep57,1,62.7,68.1
Cep57,2,50.9,58
Cep57,3,57.2,76.1
Slc19a3,1,165 (active),137
Slc19a3,2,113,72.4
Slc19a3,3,86.7,93.6
Acap2,1,84.5,80.5
Acap2,2,96.8,86.1
Acap2,3,90.1,101
Kirrel3os,1,78.5,58.6
Kirrel3os,2,85.3,68.5
Kirrel3os,3,73.2,80.7
Epb41l4b,1,90.5,91.6
Epb41l4b,2,97.5,109
Epb41l4b,3,74.7,48.8
Psmd11,1,37.6,11.7
Psmd11,2,36.4,20.2
Psmd11,3,58.9,67.1
Aadat,1,114,76.4
Aadat,2,105,132
Aadat,3,46.4,88.4
Mrps12,1,96,53.6
Mrps12,2,64.5,68.1
Mrps12,3,126 (active),113
Zfp3,1,59.5,91.8
Zfp3,2,78.6,85.8
Cep170,1,60.4,106
Cep170,2,71.9,68.7
Cep170,3,75.6,121
Cnih3,1,93.7,88.5
Cnih3,2,68.3,52.9
Cnih3,3,83.2,76
Mybph,1,13.2,45.5
Mybph,2,75.4,74.2
Chrna6,1,93.7,115
Chrna6,2,95.3,77.3
Chrna6,3,84.6,63.6
Or51k1,1,110,74.9
Or51k1,2,122 (active),90.1
Or51k1,3,132 (active),65.7
Stoml3,1,76.9,43.8
Stoml3,2,75.1,70.8
Stoml3,3,56.2,84.8
Crtc3,1,6.85,34
Crtc3,2,75.4,103
Crtc3,3,90.5,114
Cd226,1,101,110
Cd226,2,70.3,61.8
Cd226,3,100,113

13 entries from above, reformatted.
gene knocked down	reagent	GFP, % of control	viability (ATP), % of control
Cep170	1	60.4	106
Cep170	2	71.9	68.7
Cep170	3	75.6	121
Cnih3	1	93.7	88.5
Cnih3	2	68.3	52.9
Cnih3	3	83.2	76
Mybph	1	13.2	45.5
Mybph	2	75.4	74.2
Chrna6	1	93.7	115
Chrna6	2	95.3	77.3
Chrna6	3	84.6	63.6
Or51k1	1	110	74.9
Or51k1	2	122 (active)	90.1

Continued:
gene knocked down,reagent,"GFP, % of control","viability (ATP), % of control"
Ifit2,1,83.4,79.1
Ifit2,2,73.5,73.9
Ifit2,3,74.7,74.3
1700028K03Rik,1,99.3,60
1700028K03Rik,2,56.2,53.1
1700028K03Rik,3,93.2,100
Tspyl1,1,55.7,81.2
Tspyl1,2,63.1,33.1
Tspyl1,3,104,59.4
Ropn1l,1,110,92.3
Ropn1l,2,84.5,59.7
Ropn1l,3,43.8,57.2
Batf3,1,94.3,54.9
Batf3,2,43,39.2
Batf3,3,87.6,103
Clcc1,1,70.4,62.1
Clcc1,2,97.8,82.4
Clcc1,3,48.4,51.9
Hadhb,1,37.1,62.9
Hadhb,2,96.2,96.9
Hadhb,3,95.7,118
Depp1,1,114,76.5
Depp1,2,100,83.6
Depp1,3,124 (active),123
Slc7a14,1,41.6,21
Slc7a14,2,312 (active),101
Slc7a14,3,46.5,49.5
Gria2,1,97.6,84.3
Gria2,2,32.8,42.4
Gria2,3,46,61.3
